At least one read-out could not be matched to a standard name with certainty.
Test system: rat soleus muscles
Assay: Mg2+ concentration required to depress nerve-stimulated force by 50% (Kd,Mg2+), combination with 3,4-AP
Type: cell-based
Settings: 3,4-AP (10 μM) alone; rat soleus muscle
Method: FIGS. 6A-6E. […] Muscles from 4-week-old rats were stimulated to contract by activating the motor nerve with short duration pulses in field stimulation. Muscles contracted every 10 min for 2 s in response to 30 Hz stimulation. Four different experimental conditions were used. […] C) similar to A) but this muscle had been pre-incubated with 3,4-AP. […] The force integral (AUC) was determined at each extracellular Mg^2+ concentration. AUC was plotted against Mg^2+ concentration and the data was fitted to a sigmoidal function. This provided the extracellular Mg^2+ concentration that was required to reduce the nerve-stimulated force to 50% (Mg50) under the four different conditions (see Table 5).
While the use of tubocurarine mimics conditions with reduced neuromuscular transmission due to post-synaptic dysfunction (myasthenia gravis, neuromuscular blockade), the experiments with elevated extracellular Mg^2+ mimics conditions with pre-synaptic dysfunction akin to a range of neuromuscular disorders including Lambert Eaton syndrome, motor neuron disorders and polyneuropathy. […] Based on this it was determined whether recovery of nerve-stimulated force at elevated extracellular Mg^2+ with CIC-1 inhibiting compounds could be added to force recovery with 3,4-AP. […] To quantify the effect of compounds on Mg^2+ sensitivity the force at the different Mg^2+ concentrations was determined. […]

With `Nc1ccncc1N` [3,4-AP, 3,4-diaminopyridine, reference compound] the “Kd,Mg2+ (Mg2+ concentration required to depress nerve-stimulated force by 50%)” value was 5.8 ± 0.3 mM*,**.

— patent publication US11730714B2, “Compounds for the treatment of neuromuscular disorders” (NMD PHARMA A/S, priority 2017, dated 2023)
